# Experimental data: the supplement of paper PMC12067093, “Discovery and optimisation of a covalent ligand for TRIM25 and its application to targeted protein ubiquitination” (Chemical Science, 2025)
# Sequences of proteins named here, by UniProt entry; tags and fusion partners are left off. A change or cut given only in a name is not applied to a line headed by its entry.
# UniProt A6NC98: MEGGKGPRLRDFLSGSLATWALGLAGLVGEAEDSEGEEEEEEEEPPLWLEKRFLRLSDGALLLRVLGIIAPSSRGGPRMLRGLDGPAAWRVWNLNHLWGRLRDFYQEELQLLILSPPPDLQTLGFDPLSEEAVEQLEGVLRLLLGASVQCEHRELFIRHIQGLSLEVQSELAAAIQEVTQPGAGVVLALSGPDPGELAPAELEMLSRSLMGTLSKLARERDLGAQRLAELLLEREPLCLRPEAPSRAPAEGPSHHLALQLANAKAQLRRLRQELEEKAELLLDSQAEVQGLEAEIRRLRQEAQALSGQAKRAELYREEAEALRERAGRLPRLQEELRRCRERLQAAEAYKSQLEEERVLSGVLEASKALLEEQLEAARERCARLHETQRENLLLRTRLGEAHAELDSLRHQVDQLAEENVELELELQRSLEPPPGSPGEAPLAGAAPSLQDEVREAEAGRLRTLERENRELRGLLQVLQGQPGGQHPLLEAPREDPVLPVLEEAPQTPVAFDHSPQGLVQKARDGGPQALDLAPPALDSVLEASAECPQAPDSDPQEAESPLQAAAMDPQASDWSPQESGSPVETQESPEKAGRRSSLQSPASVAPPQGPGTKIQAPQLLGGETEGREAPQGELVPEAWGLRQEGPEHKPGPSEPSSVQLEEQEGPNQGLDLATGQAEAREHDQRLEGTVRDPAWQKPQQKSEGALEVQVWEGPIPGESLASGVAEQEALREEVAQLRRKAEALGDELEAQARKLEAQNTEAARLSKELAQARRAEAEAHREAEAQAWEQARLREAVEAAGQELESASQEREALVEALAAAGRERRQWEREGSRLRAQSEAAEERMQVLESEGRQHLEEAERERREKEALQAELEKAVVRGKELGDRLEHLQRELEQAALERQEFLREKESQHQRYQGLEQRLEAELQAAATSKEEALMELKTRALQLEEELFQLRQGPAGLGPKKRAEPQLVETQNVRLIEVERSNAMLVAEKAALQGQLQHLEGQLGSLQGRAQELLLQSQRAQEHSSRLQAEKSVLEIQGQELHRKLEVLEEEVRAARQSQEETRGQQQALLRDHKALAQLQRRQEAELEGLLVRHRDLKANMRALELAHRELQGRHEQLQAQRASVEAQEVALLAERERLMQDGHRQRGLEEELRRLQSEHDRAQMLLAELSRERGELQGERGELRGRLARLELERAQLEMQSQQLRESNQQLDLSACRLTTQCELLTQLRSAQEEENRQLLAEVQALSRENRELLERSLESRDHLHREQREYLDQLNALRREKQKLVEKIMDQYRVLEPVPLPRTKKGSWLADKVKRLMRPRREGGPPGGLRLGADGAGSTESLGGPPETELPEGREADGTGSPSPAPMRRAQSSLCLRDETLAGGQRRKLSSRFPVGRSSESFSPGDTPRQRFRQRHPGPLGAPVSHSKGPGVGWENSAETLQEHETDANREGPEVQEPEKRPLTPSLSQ
# UniProt P16152: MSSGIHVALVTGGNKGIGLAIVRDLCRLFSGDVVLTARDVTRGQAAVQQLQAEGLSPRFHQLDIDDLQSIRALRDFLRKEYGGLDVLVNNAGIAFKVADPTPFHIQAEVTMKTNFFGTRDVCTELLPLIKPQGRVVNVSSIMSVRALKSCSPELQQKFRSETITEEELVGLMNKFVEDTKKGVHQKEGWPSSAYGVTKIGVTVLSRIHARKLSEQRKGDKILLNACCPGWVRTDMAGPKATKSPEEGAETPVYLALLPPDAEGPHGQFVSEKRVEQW
# UniProt P20810: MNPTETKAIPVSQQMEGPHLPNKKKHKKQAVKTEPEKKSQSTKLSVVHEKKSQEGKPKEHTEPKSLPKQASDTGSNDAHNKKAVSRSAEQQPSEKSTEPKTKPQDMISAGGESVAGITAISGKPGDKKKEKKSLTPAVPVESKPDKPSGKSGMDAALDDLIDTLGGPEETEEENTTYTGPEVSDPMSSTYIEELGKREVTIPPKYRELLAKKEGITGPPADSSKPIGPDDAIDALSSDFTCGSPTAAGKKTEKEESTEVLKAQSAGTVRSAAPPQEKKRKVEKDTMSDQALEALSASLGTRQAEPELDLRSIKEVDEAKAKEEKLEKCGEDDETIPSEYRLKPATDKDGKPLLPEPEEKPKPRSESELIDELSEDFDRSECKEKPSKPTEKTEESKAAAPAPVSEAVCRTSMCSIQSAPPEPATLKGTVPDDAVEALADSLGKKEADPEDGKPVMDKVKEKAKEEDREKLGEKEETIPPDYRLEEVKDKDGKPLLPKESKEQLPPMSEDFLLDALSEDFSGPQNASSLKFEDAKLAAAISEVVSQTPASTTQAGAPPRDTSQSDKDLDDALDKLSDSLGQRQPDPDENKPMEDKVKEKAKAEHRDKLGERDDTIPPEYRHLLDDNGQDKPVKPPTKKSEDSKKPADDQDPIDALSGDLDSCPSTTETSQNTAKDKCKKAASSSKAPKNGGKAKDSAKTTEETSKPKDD
# UniProt Q5T0F9: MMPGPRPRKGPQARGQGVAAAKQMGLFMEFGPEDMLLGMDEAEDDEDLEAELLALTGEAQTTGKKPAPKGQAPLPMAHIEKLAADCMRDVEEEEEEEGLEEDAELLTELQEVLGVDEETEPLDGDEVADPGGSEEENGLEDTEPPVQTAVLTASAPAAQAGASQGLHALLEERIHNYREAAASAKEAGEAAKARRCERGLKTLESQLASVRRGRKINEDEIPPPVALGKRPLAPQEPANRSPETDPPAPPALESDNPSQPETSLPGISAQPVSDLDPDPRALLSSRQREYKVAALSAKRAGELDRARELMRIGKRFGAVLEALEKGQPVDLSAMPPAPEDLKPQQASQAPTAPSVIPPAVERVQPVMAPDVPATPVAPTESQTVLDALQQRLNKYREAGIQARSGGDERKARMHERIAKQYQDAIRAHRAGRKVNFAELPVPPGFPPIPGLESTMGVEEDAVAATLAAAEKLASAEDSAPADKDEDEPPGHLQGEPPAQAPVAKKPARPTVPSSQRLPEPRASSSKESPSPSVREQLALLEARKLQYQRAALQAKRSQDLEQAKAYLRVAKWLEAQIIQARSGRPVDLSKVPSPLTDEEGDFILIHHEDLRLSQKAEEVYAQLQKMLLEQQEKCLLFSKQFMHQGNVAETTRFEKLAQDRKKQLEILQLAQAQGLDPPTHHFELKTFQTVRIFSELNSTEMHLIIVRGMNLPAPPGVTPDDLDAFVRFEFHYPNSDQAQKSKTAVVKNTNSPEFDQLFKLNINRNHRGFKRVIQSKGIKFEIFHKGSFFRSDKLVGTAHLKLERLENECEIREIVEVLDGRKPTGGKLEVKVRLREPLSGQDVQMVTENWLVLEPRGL
# UniProt Q9H6F5: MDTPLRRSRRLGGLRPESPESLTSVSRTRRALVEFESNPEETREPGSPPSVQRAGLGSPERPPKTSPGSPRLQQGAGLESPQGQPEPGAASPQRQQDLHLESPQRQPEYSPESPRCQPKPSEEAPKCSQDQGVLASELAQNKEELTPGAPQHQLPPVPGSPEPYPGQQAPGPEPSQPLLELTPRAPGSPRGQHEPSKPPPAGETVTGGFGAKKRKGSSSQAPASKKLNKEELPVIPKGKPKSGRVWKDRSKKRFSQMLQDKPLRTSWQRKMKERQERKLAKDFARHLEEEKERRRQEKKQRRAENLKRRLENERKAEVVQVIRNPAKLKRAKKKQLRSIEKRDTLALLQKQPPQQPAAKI
# UniProt P42575: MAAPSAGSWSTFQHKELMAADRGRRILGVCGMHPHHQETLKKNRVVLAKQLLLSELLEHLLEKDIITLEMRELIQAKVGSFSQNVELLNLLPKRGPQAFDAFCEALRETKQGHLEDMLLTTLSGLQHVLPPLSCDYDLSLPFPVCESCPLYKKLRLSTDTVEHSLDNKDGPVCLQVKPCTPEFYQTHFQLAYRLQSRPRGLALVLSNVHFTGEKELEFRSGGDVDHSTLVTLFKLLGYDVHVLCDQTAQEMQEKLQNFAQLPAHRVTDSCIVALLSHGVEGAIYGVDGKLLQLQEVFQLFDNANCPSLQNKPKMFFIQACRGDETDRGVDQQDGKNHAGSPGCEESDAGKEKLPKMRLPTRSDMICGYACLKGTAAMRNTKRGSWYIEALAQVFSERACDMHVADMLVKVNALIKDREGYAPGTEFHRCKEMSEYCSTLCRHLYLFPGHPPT
# UniProt Q8IX12: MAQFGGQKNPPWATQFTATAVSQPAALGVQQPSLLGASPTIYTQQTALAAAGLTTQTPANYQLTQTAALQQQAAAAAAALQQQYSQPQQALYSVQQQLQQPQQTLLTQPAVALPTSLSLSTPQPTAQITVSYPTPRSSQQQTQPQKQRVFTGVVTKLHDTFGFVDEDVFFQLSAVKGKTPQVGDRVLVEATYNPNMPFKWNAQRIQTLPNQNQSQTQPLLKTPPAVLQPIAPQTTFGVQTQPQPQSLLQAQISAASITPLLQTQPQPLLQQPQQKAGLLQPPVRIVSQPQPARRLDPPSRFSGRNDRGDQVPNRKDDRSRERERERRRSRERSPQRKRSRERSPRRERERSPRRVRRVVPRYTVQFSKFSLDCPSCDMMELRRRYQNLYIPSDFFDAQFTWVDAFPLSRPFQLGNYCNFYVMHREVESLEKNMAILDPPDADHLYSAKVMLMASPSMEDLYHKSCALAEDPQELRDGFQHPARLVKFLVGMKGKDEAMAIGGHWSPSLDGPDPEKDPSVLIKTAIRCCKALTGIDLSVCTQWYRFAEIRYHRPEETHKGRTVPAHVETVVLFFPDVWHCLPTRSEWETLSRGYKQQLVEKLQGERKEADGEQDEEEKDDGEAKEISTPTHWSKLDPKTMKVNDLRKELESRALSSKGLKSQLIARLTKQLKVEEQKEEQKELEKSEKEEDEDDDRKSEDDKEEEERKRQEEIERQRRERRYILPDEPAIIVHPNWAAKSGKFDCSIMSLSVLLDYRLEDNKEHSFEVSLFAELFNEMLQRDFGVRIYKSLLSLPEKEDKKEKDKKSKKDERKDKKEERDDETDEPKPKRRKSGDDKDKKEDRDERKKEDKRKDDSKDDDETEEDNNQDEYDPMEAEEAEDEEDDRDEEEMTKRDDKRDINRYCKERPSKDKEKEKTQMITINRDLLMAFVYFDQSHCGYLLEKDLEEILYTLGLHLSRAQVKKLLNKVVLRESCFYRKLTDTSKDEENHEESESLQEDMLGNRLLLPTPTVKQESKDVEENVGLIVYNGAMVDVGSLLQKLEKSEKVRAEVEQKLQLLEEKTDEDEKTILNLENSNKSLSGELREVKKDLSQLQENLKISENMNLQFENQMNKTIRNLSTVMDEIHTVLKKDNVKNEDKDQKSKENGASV
# UniProt P29466: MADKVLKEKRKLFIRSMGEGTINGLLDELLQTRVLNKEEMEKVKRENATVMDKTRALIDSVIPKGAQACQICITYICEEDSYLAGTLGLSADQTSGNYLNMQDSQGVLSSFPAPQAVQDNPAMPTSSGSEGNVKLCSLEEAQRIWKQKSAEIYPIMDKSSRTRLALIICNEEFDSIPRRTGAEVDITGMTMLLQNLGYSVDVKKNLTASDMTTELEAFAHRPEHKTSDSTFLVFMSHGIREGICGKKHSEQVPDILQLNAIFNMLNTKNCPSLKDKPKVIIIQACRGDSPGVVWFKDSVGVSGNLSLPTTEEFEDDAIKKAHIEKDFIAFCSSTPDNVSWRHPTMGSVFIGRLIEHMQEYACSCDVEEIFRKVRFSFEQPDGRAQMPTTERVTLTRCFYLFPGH
# UniProt O95067, whole entry, looked up: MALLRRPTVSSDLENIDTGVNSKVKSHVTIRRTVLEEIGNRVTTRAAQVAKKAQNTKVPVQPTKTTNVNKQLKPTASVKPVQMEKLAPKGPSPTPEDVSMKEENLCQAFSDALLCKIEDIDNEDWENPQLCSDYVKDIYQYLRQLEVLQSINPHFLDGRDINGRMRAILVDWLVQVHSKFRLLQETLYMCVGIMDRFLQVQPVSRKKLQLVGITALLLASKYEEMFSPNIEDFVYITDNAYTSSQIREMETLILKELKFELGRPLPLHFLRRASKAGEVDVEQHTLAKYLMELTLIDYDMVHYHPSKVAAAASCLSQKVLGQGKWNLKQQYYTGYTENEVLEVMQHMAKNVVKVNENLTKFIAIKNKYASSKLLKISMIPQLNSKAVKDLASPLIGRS
# UniProt P40123, whole entry, looked up: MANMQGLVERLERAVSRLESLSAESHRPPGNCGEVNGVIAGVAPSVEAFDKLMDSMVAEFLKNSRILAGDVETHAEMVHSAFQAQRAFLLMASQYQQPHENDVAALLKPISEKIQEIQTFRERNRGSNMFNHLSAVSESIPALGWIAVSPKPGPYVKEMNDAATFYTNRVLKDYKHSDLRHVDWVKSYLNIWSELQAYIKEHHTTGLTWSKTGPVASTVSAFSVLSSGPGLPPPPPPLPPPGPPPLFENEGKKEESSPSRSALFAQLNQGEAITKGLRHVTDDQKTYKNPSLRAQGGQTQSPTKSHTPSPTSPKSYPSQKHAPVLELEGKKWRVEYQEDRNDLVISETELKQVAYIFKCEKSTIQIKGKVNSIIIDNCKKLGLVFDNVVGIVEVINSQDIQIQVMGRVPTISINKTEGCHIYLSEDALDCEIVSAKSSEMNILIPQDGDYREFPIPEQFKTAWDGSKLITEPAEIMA
# The other results are listed elsewhere or left out.
# Compound: CC1Cc2ccccc2N1C(=O)C1CCCN(C1)C(=O)CCl (mixture of isomers) [TRIM25 ligand 11 (diastereomer mixture)]
# Assay: probe-labelled cysteine peptide fold change vs DMSO (competition) (log2 fold change); higher = less target engagement (more negative = stronger competition)
# Conditions: 50 µM; THP-1; incubation time: 4 h
# 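Further: competitive chemoproteomic profiling in live THP-1 cells with an iodoacetamide desthiobiotin (IA-DTB) probe, comparing probe-labelled peptide intensities in compound-treated cells against DMSO-treated controls.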
row,Target,probe-labelled cysteine peptide fold change
1,CASP8AP2_Q9UKL3_174_SPHLDDCSK (UniProt Q9UKL3),0.155
2,CCDC88B_A6NC98_1222_ESNQQLDLSACR (UniProt A6NC98),-0.243
3,CASP10_Q92851_97_LLQHLNCTK (UniProt Q92851),-0.157
4,CCAR2_Q8N163_644_PLSSGGEEEEKPRGEASEDLCEMALDPELLLLR (UniProt Q8N163),0.0687
5,CBR1_P16152_150_SCSPELQQK (UniProt P16152),-0.0901
6,CAST_P20810_381_SESELIDELSEDFDRSECK (UniProt P20810),-0.152
7,CC2D1B_Q5T0F9_809_LERLENECEIR (UniProt Q5T0F9),0.00479
8,CCDC86_Q9H6F5_127_CSQDQGVLASELAQNK (UniProt Q9H6F5),0.098
9,CASP2_P42575_173+179_DGPVCLQVKPCTPEFYQTHFQLAYR (UniProt P42575),-0.22
10,CCAR1_Q8IX12_465_SCALAEDPQELRDGFQHPAR (UniProt Q8IX12),-0.0931
11,CASP1_P29466_362_LIEHMQEYACSCDVEEIFR (UniProt P29466),0.0533
12,CCNB2_O95067_314_VAAAASCLSQK (UniProt O95067),0.0978
13,CAPN15_O75808_9_ATVGEWSCVR (UniProt O75808),0.0161
14,CASP2_P42575_399_ACDMHVADMLVK (UniProt P42575),-0.0975
15,CAP2_P40123_430_TEGCHIYLSEDALDCEIVSAK (UniProt P40123),0.0915
16,CBFA2T3_O75081_405_HLNNLLNCIMDMVEK (UniProt O75081),-0.0986

# Taken from above.
# Value of CASP2_P42575_399_ACDMHVADMLVK (UniProt P42575) under probe-labelled cysteine peptide fold change: -0.0975
# Value of CCDC86_Q9H6F5_127_CSQDQGVLASELAQNK (UniProt Q9H6F5) under probe-labelled cysteine peptide fold change: 0.098
